The text below walks through data of paper PMC10011438.

The chains behind the UniProt entries cited, without tags or fusion partners.
UniProt P10415: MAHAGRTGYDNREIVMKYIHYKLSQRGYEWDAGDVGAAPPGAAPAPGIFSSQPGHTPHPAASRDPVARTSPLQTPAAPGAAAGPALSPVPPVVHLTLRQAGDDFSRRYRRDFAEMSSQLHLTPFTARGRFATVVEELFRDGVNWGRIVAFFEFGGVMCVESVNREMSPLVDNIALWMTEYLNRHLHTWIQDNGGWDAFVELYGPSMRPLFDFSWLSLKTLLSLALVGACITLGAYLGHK
UniProt P11881: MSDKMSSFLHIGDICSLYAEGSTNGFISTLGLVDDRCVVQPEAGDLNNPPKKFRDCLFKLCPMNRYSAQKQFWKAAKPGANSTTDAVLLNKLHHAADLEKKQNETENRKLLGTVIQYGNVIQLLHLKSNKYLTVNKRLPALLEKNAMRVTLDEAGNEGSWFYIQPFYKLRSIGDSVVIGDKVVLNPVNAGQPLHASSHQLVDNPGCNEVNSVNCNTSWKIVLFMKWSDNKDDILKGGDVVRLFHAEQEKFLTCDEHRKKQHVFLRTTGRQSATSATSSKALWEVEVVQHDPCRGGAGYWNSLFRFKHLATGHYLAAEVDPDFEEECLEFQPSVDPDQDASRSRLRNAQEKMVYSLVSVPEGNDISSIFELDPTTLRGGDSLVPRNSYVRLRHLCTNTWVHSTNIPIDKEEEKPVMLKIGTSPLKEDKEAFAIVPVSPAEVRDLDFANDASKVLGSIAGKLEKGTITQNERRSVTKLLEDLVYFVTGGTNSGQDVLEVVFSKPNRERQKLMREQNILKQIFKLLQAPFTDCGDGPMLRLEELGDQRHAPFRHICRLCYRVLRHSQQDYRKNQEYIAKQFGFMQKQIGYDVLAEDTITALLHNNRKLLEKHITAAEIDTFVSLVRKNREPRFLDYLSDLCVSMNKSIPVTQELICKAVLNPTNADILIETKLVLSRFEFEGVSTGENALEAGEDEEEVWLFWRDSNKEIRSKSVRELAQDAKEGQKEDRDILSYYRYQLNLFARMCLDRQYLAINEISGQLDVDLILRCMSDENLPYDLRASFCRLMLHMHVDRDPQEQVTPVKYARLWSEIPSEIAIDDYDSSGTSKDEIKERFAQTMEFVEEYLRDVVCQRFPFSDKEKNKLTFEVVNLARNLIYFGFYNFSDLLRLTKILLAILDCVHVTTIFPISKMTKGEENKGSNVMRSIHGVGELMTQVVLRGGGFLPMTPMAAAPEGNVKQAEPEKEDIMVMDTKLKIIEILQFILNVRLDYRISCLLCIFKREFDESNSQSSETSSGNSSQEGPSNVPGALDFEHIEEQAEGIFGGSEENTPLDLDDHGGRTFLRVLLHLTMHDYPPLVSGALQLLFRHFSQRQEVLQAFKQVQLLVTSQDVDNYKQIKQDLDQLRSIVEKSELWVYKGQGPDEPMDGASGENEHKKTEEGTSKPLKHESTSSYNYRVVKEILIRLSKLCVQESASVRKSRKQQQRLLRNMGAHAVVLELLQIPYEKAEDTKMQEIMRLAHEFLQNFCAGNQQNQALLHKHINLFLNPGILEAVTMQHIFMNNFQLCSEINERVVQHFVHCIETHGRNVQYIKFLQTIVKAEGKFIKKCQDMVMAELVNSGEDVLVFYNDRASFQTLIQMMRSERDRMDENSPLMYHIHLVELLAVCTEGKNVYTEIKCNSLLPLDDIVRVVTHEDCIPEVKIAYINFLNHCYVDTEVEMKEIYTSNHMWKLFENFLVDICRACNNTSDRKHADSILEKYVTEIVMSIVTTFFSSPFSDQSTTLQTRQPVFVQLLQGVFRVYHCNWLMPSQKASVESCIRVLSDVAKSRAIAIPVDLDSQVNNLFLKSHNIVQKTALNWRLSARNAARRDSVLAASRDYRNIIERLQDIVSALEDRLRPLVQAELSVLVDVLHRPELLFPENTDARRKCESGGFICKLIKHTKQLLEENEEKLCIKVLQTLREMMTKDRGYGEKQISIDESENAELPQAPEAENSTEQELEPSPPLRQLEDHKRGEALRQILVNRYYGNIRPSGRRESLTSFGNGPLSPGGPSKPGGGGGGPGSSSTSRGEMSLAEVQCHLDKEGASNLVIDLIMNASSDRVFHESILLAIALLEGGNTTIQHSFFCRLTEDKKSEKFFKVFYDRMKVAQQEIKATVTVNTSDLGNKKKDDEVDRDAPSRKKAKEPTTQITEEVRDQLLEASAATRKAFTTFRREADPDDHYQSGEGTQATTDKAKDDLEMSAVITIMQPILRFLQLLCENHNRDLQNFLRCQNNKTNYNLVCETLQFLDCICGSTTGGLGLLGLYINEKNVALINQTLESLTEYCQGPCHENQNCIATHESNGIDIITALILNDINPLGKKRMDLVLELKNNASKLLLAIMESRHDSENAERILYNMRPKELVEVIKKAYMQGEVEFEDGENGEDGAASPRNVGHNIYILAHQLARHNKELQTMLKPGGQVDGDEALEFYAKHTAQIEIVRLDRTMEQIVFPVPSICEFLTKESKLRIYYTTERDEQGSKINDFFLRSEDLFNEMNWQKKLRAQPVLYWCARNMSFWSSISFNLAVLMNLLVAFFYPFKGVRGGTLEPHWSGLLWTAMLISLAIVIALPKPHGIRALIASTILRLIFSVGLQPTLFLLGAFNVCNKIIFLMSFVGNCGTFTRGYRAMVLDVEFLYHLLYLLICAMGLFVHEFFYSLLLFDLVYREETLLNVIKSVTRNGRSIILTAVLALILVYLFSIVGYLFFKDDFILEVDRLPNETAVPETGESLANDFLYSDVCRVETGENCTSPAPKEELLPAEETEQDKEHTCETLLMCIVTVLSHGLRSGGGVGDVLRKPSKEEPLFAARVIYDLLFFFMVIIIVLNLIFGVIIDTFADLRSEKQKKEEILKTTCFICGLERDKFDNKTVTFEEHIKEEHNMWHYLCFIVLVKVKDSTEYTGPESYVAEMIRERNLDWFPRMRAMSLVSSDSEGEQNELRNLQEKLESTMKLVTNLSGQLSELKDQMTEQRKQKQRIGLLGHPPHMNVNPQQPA

Results are given in words; binding and its absence hold for the method and conditions named. Binding seen in cells or lysates may run through a third protein. Some results given as binding are weak or reduced against the parent protein; the word gives no strength.

This assay concerns the target 3xFLAG-Bcl-2 (UniProt P10415). Nature of the assay: co-IP; anti-FLAG antibody on protein G magnetic particles; lysates of hippocampi of 5xFAD mice 30 days after AAV injection; lysis buffer 25 mM Tris, 150 mM NaCl, 10 mM EDTA, 1 % NP40, pH 7.6; 16 h at +4 °C; immunoblot for IP3R1, RyR2 and Bcl-2; control IgG. For orientation: A western blot detects proteins with antibodies after separation by electrophoresis.

For the substance “inositol-1,4,5-trisphosphate type 1 receptor (from UniProt P11881 1-2749)”, the binding entry is reported as “binds”.
